# Measured values: PubChem BioAssay AID1671190 (National Center for Advancing Translational Sciences (NCATS), 2021)
# Sequences of proteins named here, by UniProt entry; tags and fusion partners are left off. A change or cut given only in a name is not applied to a line headed by its entry.
# UniProt P18054: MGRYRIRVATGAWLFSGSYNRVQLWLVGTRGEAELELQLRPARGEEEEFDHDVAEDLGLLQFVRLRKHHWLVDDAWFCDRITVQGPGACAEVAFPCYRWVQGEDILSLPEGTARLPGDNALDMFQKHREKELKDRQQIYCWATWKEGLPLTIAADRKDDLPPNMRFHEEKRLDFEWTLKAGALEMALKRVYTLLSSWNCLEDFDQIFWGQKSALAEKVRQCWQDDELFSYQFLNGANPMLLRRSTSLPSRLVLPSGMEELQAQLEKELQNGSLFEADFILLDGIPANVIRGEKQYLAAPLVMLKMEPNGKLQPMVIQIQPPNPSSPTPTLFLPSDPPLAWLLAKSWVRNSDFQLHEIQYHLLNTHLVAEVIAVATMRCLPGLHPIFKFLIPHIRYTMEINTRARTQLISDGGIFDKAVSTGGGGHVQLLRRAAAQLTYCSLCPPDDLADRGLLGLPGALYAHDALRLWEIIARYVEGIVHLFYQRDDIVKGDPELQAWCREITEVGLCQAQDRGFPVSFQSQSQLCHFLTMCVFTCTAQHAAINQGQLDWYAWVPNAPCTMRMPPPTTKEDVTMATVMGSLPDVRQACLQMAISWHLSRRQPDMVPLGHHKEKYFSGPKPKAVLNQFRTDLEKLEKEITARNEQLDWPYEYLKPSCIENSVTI
# About 6,100 (1.1%) of roughly 580,000 compounds were called active. Inconclusive results, whose numbers are uncertain, are shown with a selection of clear calls. The call rests on the fitted dose curve; in most records, active means well fitted inhibition curve with a large enough effect; inconclusive means small, poorly fitted or top-dose-only effect, or another doubt; inactive means no such curve, though single readings can be large or run the other way. Potencies beside an inconclusive call are fits to weak or partial responses and may not hold up.
# Target: Polyunsaturated fatty acid lipoxygenase ALOX12 (Homo sapiens) (UniProt P18054)
# Experiment: Primary qHTS assay for inhibitors of human arachidonate 12S-lipoxygenase (ALOX12): Round 2
# Settings: purified 12hLO, xylenol orange hydroperoxide absorbance; activity change, negative = inhibition: at 108 µM (top of the series) unless noted
# In short: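 Hydroperoxide product was detected by ferrous iron/xylenol orange as the 573 to 405 nm absorbance ratio. Arachidonic acid at 40 uM (final) was turned over for 30 min at room temperature by 150 nM human 12hLO, pH 7.0 Hepes buffer, after 15 min compound preincubation.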
# On the % scale 0 is the no-effect control and ±100 the full control effect; potency means the concentration at half of the fitted maximal effect.
SMILES,"activity change, negative = inhibition",Potency
O=C(CCCCl)Nc1c2c(nn1-c1ccccc1)CSC2,inactive: 13%,
NS(=O)(=O)c1ccc(Nc2nc(-c3ccc(F)cc3)cs2)cc1,,active: 39.8 µM
COc1cc(C=O)cc(Cl)c1OCc1ccc(F)cc1,inactive: -9.62%,
CCn1nc(C(=O)OC/C(O)=C(\C#N)c2nc3ccccc3[nH]2)c2ccccc2c1=O,,"inconclusive: 44.7 µM [inhibitor, partial curve, poor fit]"
CN1CCN(Cc2nnc(C3CCN(C(=O)C4(N)CC4)CC3)n2C)CC1,,"inconclusive: 0.708 µM [inhibitor, full curve, poor fit]"
CCc1ccc(/C=C2\SC(=S)N(CCCC(=O)Nc3cc(C)on3)C2=O)cc1,inactive: -11.3%,
CC(C)(C)OC(=O)N1CCN(C(=O)c2[nH]cnc2C(=O)N[C@@H](Cc2ccccc2)C(=O)OCc2ccccc2)CC1,inactive: 18.2%,
CCCOc1ccc(CCCN=C(N)N)cc1Cl,,"inconclusive: 100 µM [inhibitor, partial curve, poor fit]"
Cc1ncc([N+](=O)[O-])n1CC(C)O (centres undefined),,"inconclusive: 2.73 µM [inhibitor, full curve]"
Cc1ccc(-c2nn(CCC(=O)Nc3ccc(Cl)cc3)c(=O)c3ccccc23)cc1,inactive: -6.77%,
NCc1ccccc1-c1cnc2ccccc2c1,inactive: -18.9% [at 12.5 µM],
CCOCCCNc1nc(-c2ccc(S(=O)(=O)N3CCCCCC3)cc2)cs1,,"inconclusive: 39.8 µM [inhibitor, partial curve, poor fit]"
COc1ccc(-c2nc3scc(CCNS(=O)(=O)c4ccc5c(c4)OCCO5)n3n2)cc1OC,,"inconclusive: 5.62 µM [inhibitor, full curve, poor fit]"
CC(=O)C1=C(Nc2ccccc2)CC(C)(O)C(C(C)=O)C1c1ccccc1 (centres undefined),,"inconclusive: 89.1 µM [inhibitor, partial curve, poor fit]"
Cc1ccc(C)c(N2CCN(c3ccc(N4C(=O)COCC4=O)cc3[N+](=O)[O-])CC2)c1,inactive: -29.5%,
COC(=O)c1ccc(NN=Nc2ccc(C)cc2)cc1,,active: 17.8 µM
Cc1c(C(=O)N2CCC(C)CC2)sc2ncnc(N(C)c3ccccc3)c12,,"inconclusive: 50.1 µM [inhibitor, partial curve, poor fit]"
Cc1ccc(C2CC(c3cccs3)=NN2C(=O)CSc2nc(=O)n3ccc(C)cc3n2)cc1 (centres undefined),,"inconclusive: 63.1 µM [inhibitor, partial curve, poor fit]"
N#Cc1c2n(c(=O)n(CCOc3cccc(F)c3)c1=O)CCC2,,"inconclusive: 50.1 µM [inhibitor, partial curve, poor fit]"
CCc1cccc(C)c1NC(=O)c1cnc2ccccc2n1,,"inconclusive: 56.2 µM [inhibitor, partial curve, poor fit]"
CCN(c1ccccc1)S(=O)(=O)c1ccc(Cl)c(C(=O)NCC2CCCO2)c1 (centres undefined),,"inconclusive: 1.26 µM [inhibitor, full curve, poor fit]"
Cc1ccc(NC(=O)Nc2ccc(C)n(CC(=O)Nc3ccc(C)c(C)c3)c2=O)cc1,,"inconclusive: 89.1 µM [inhibitor, single point]"

# Reprinted at random: 2 compounds from above, in no set order.
SMILES,"activity change, negative = inhibition",Potency
Cc1ccc(C)c(N2CCN(c3ccc(N4C(=O)COCC4=O)cc3[N+](=O)[O-])CC2)c1,inactive: -29.5%,
CC(=O)C1=C(Nc2ccccc2)CC(C)(O)C(C(C)=O)C1c1ccccc1 (centres undefined),,"inconclusive: 89.1 µM [inhibitor, partial curve, poor fit]"

# (more compounds)

SMILES,"activity change, negative = inhibition",Potency
Cc1cccc(/C=C/c2nc3ccccc3c(=O)[nH]2)c1,inactive: 1.06%,
Cc1ccc2c(CC(=O)Nc3ccc4nc(N5CCOCC5)sc4c3)coc2c1,,"inconclusive: 39.8 µM [inhibitor, partial curve, poor fit]"
N#CCCCc1cc2ccccc2cn1,,"inconclusive: 126 µM [inhibitor, partial curve, poor fit]"
O=C(COc1ccc(Cl)cc1Cl)NCc1ccco1,,"inconclusive: 1.78 µM [inhibitor, full curve, poor fit]"
CC(Oc1ccccc1)C(=O)Nc1ccc(OCc2ccccc2)cc1 (centres undefined),,"inconclusive: 2.24 µM [inhibitor, full curve, poor fit]"
CSC[C@H](NC(=O)COc1cc2c(c3oc(=O)c(C)c(C)c13)CCC(C)(C)O2)C(=O)O,,"inconclusive: 50.1 µM [inhibitor, partial curve, poor fit]"
C/C=C(/C(=C/C)c1ccc(O)cc1)c1ccc(O)cc1,,"inconclusive: 9.07 µM [inhibitor, partial curve]"
Clc1ccc(N(CC2CO2)CC2CO2)cc1 (centres undefined),,"inconclusive: 56.2 µM [inhibitor, partial curve, poor fit]"
COc1ccc(Cl)cc1N1C(=O)CC(Sc2ccccc2N)C1=O (centres undefined),,"inconclusive: 89.1 µM [inhibitor, partial curve, poor fit]"
Cc1ccc(C2Cn3cnc(C(=O)N4CCC(C(=O)NCc5ccccc5)CC4)c3CO2)cc1 (centres undefined),inactive: 58.8%,
CCCCn1c(=O)c2[nH]c(C34CC5CC(CC3C5)C4)nc2n(CCCO)c1=O,,"inconclusive: 3.98 µM [inhibitor, full curve, poor fit]"
Cc1cccc(NC(=O)CNC(=O)c2cccc(-n3cccc3)c2)c1C,,"inconclusive: 50.1 µM [inhibitor, partial curve, poor fit]"
Cc1ccc2c(c1)C1CN(C)CCC1N2S(=O)(=O)c1ccccc1F (centres undefined),,"inconclusive: 100 µM [inhibitor, partial curve, poor fit]"
Cc1ccc(N(Cc2cc3ccc(C)cc3[nH]c2=O)S(C)(=O)=O)c(C)c1,,"inconclusive: 50.1 µM [inhibitor, partial curve, poor fit]"
CC(C)Oc1ccc(C(=O)/C=C2/C(=O)Nc3ccccc32)cc1,,"inconclusive: 63.1 µM [inhibitor, partial curve, poor fit]"
COc1ccc(C(=O)N2CCN(C3CCCCC3)CC2)cc1OC,,active: 0.631 µM
CNc1n[nH]c(=S)s1,,active: 22.4 µM
NC(=O)c1cc(N=Nc2c(N)[nH]n(-c3c(Cl)cc(Cl)cc3Cl)c2=O)ccc1Cl,,"inconclusive: 31.6 µM [inhibitor, partial curve, poor fit]"
CCCCc1ccc(-n2c(Cc3cccs3)n[nH]c2=S)cc1,,"inconclusive: 50.1 µM [inhibitor, partial curve, poor fit]"
Cc1cccc(S(=O)(=O)Nc2nc3ccccc3nc2NCc2ccco2)c1,,"inconclusive: 8.91 µM [inhibitor, full curve, poor fit]"
Cc1cccc(OC(=O)NCCOC(=O)N(O)c2ccc(Cl)cc2)c1,,"inconclusive: 50.1 µM [inhibitor, partial curve, poor fit]"
Cc1cccc(C(=O)N2CCc3cc(CNC(=O)c4cc5ccccc5[nH]4)ccc32)c1,,"inconclusive: 112 µM [inhibitor, partial curve, poor fit]"

SMILES,"activity change, negative = inhibition",Potency
COc1ccc(/C=C2\Oc3cc(OCC(N)=O)ccc3C2=O)cc1OC,,"inconclusive: 63.1 µM [inhibitor, partial curve, poor fit]"
Cc1ccc(NC(=O)c2ccco2)c(NC(=O)c2ccccc2)c1,inactive: -0.138%,
COc1cc(Cl)ccc1-c1ccc(COc2ccc3c(cnn3CCC(=O)O)c2)cc1,,"inconclusive: 31.6 µM [inhibitor, full curve]"
Cc1n[nH]c2ccccc2c1=O,,"inconclusive: 3.98 µM [inhibitor, full curve, poor fit]"
CC(C)CN(C(=O)COC(=O)Cc1n[nH]c(=O)c2ccccc12)C1CCS(=O)(=O)C1 (centres undefined),,"inconclusive: 63.1 µM [inhibitor, partial curve, poor fit]"
CCc1nc2ccccc2n1CCc1ccccc1,,"inconclusive: 35.5 µM [inhibitor, partial curve, poor fit]"
Cc1cc(C)c(S(=O)(=O)NCCS(=O)(=O)N2CCN(c3ccccc3)CC2)c(C)c1,inactive: -26%,
Cc1ccc(Nc2n[nH]c(=S)s2)cc1,,active: 31.6 µM
O=C(NCc1cnn(-c2ccccc2)c1)C1CCN(S(=O)(=O)c2ccccc2)CC1,inconclusive: -35.3% [inhibitor],
Nn1c(SCC(=O)Nc2ccc3c(c2)OCCO3)nnc1C(F)(F)F,,"inconclusive: 100 µM [inhibitor, partial curve, poor fit]"
COc1ccc(Cl)cc1N(CC(=O)NCCSc1ccccn1)S(=O)(=O)c1ccccc1,,"inconclusive: 112 µM [inhibitor, single point]"
COc1ccc(C2CCCN2C(=O)c2csc(-c3ccccc3)n2)cc1 (centres undefined),,"inconclusive: 112 µM [inhibitor, single point]"
CCOC(=O)CCCOc1cccn2c(=O)c(-c3cc(C)n(-c4ccc(Cl)cc4)n3)c(C)nc12,,"inconclusive: 11.2 µM [inhibitor, full curve]"
O=C(Nc1ccc(Cl)cn1)c1ccccc1[N+](=O)[O-],,"inconclusive: 22.4 µM [inhibitor, partial curve, poor fit]"
COc1ccccc1C1C(C(N)=O)=C(C)Nc2nc(-c3ccc(Cl)cc3)nn21 (centres undefined),inactive: 21.6% [at 57.4 µM],
O=C(Nc1c(F)cc(F)cc1Br)c1cc(-c2ccccc2)on1,,"inconclusive: 25.1 µM [inhibitor, partial curve, poor fit]"
CC1(C(=O)N2CCOCC2)CN(Cc2ccccc2)Cc2ccc(Nc3ccccc3)nc21 (centres undefined),inconclusive: -30.7% [inhibitor],
CC(=O)C1C(=O)c2c(cccc2[N+](=O)[O-])C1=Nc1cccc(Cl)c1 (centres undefined),inactive: 14.2%,
Cc1ccc(C2c3[nH]c4ccccc4c3C[C@H]3C(=O)N(c4ccccc4C(=O)N4CCC[C@H]4C(=O)O)C(=O)N23)cc1 (some centres undefined),,"inconclusive: 126 µM [inhibitor, single point]"
NC1=NC(c2cn(-c3ccccc3)nc2-c2cccs2)n2c(nc3ccccc32)N1 (centres undefined),,"inconclusive: 50.1 µM [inhibitor, partial curve, poor fit]"
